Paper PMC2970546
No constants are given. Whether binding was seen depends on the method and setting. A result given as binding can be weak or reduced; the word gives no strength. Values belong to the binder of their own block, whether it stands above or below them.

By UniProt entry, the sequences of proteins in these tests, tags left out. Where a name states a change or a piece, a line headed by the entry shows the natural chain unless it says otherwise.
UniProt O43236: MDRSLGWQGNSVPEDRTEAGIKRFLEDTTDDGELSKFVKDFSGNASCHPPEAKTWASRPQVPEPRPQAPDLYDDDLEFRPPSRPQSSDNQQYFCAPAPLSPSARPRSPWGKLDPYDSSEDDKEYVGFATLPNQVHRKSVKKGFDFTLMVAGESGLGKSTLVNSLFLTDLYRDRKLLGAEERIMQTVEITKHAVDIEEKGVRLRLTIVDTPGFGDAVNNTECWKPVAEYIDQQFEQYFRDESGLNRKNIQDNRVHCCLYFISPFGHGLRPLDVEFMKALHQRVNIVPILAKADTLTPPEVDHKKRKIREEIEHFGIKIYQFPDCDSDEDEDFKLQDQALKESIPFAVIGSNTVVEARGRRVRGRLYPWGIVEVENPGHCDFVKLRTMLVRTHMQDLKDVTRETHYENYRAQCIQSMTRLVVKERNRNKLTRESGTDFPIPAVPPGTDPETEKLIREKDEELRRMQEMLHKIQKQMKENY

Molecular target: human septin 4 lacking the N-terminal domain (aa 124-478) (human) (UniProt O43236)
Assay: two-hybrid; LexA-septin bait (modified pBTM116) in yeast L40 screened against human fetal brain and human leukocyte cDNA libraries (pACT2); minimal medium without Trp, Leu, His, with 5 mM 3-AT; every clone confirmed one-to-one with its bait by beta-galactosidase filter assay, empty bait vector as control

B1: human septin 10 (protein, UniProt Q9P0V9 1-454)
chain: MASSEVARHLLFQSHMATKTTCMSSQGSDDEQIKRENIRSLTMSGHVGFESLPDQLVNRSIQQGFCFNILCVGETGIGKSTLIDTLFNTNFEDYESSHFCPNVKLKAQTYELQESNVQLKLTIVNTVGFGDQINKEESYQPIVDYIDAQFEAYLQEELKIKRSLFTYHDSRIHVCLYFISPTGHSLKTLDLLTMKNLDSKVNIIPVIAKADTVSKTELQKFKIKLMSELVSNGVQIYQFPTDDDTIAKVNAAMNGQLPFAVVGSMDEVKVGNKMVKARQYPWGVVQVENENHCDFVKLREMLICTNMEDLREQTHTRHYELYRRCKLEEMGFTDVGPENKPVSVQETYEAKRHEFHGERQRKEEEMKQMFVQRVKEKEAILKEAERELQAKFEHLKRLHQEERMKLEEKRRLLEEEIIAFSKKKATSEIFHSQSFLATGSNLRKDKDRKNSNFL
binding: binds

B4: human septin 6 (protein, UniProt Q14141-1 1-434)
chain: MAATDIARQVGEGCRTVPLAGHVGFDSLPDQLVNKSVSQGFCFNILCVGETGLGKSTLMDTLFNTKFEGEPATHTQPGVQLQSNTYDLQESNVRLKLTIVSTVGFGDQINKEDSYKPIVEFIDAQFEAYLQEELKIRRVLHTYHDSRIHVCLYFIAPTGHSLKSLDLVTMKKLDSKVNIIPIIAKADAISKSELTKFKIKITSELVSNGVQIYQFPTDDESVAEINGTMNAHLPFAVIGSTEELKIGNKMMRARQYPWGTVQVENEAHCDFVKLREMLIRVNMEDLREQTHTRHYELYRRCKLEEMGFKDTDPDSKPFSLQETYEAKRNEFLGELQKKEEEMRQMFVQRVKEKEAELKEAEKELHEKFDRLKKLHQDEKKKLEDKKKSLDDEVNAFKQRKTAAELLQSQGSQAGGSQTLKRDKEKKNNPWLCTE
binding: binds

Next, values leading:

binding: binds
B2: human septin 8 (protein, UniProt Q92599-1 1-483)
chain: MAATDLERFSNAEPEPRSLSLGGHVGFDSLPDQLVSKSVTQGFSFNILCVGETGIGKSTLMNTLFNTTFETEEASHHEACVRLRPQTYDLQESNVQLKLTIVDAVGFGDQINKDESYRPIVDYIDAQFENYLQEELKIRRSLFDYHDTRIHVCLYFITPTGHSLKSLDLVTMKKLDSKVNIIPIIAKADTISKSELHKFKIKIMGELVSNGVQIYQFPTDDEAVAEINAVMNAHLPFAVVGSTEEVKVGNKLVRARQYPWGVVQVENENHCDFVKLREMLIRVNMEDLREQTHSRHYELYRRCKLEEMGFQDSDGDSQPFSLQETYEAKRKEFLSELQRKEEEMRQMFVNKVKETELELKEKERELHEKFEHLKRVHQEEKRKVEEKRRELEEETNAFNRRKAAVEALQSQALHATSQQPLRKDKDKKNRSDIGAHQPGMSLSSSKVMMTKASVEPLNCSSWWPAIQCCSCLVRDATWREGFL

binding: no binding
B3: human septin 7 (protein, UniProt Q16181-1 1-437)
chain: MSVSARSAAAEERSVNSSTMVAQQKNLEGYVGFANLPNQVYRKSVKRGFEFTLMVVGESGLGKSTLINSLFLTDLYSPEYPGPSHRIKKTVQVEQSKVLIKEGGVQLLLTIVDTPGFGDAVDNSNCWQPVIDYIDSKFEDYLNAESRVNRRQMPDNRVQCCLYFIAPSGHGLKPLDIEFMKRLHEKVNIIPLIAKADTLTPEECQQFKKQIMKEIQEHKIKIYEFPETDDEEENKLVKKIKDRLPLAVVGSNTIIEVNGKRVRGRQYPWGVAEVENGEHCDFTILRNMLIRTHMQDLKDVTNNVHYENYRSRKLAAVTYNGVDNNKNKGQLTKSPLAQMEEERREHVAKMKKMEMEMEQVFEMKVKEKVQKLKDSEAELQRRHEQMKKNLEAQHKELEEKRRQFEDEKANWEAQQRILEQQNSSRTLEKNKKKGKIF
